Measured data: PubChem BioAssay AID652243 (Drosophila RNAi Screening Center, 2013)
Screen: 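Fly regulators of androgen-dependent reporter output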 (primary screen). Cells: Drosophila S2R+ cells. Reagent: long dsRNA against Drosophila genes. Timing: 72 h (48 h, then 24 h hormone). Treatment: synthetic androgen R1881 at 10 nM for 24 h. Detection: 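Firefly light from an androgen-responsive reporter and Renilla control light per well, raw and unnormalised, for each of two replicates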. Scale: firefly reporter light: higher = more light from androgen-responsive reporter; Renilla control light: higher = more constitutive control signal (cell number, transfection). Rule for the call: 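Across duplicate plates, a knock-down whose log firefly/Renilla ratio shifted a set fold down or up from the GFP/LacZ control mean was a hit; the downward cut appears as both 1.5 and 3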. Meaning of the calls: active = hit: reporter lowered or raised; inactive = no hit.
The deposit covers about 24,000 reagents; this is a random part of those that have a named target and a result. Of all reagents, 246 (1%) were called active. 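Plates not normalised; calls are printed but the firefly/Renilla ratio behind them is not deposited; fold cut for lowering reported inconsistently.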 Raw values are not corrected between plates. Names joined by + are all predicted targets of the reagent. Not given: the amount of reagent.

With CG17598 [DRSC20636], how do the results read?
firefly reporter light, replicate 1: 64764; firefly reporter light, replicate 2: 83832; Renilla control light, replicate 1: 5.51e5; Renilla control light, replicate 2: 4.99e5; Call: inactive

What did the screen give for CG17598 [DRSC36828]?
Call: inactive

What did the screen give for CG17598 [DRSC36829]?
Call: inactive

How did the screen score l(3)87Df [DRSC16982]?
firefly reporter light, replicate 1: 1.66e5; firefly reporter light, replicate 2: 2.68e5; Renilla control light, replicate 1: 1.76e6; Renilla control light, replicate 2: 2.25e6; Call: inactive

What did the screen give for TotB [DRSC15842]?
firefly reporter light, replicate 1: 3.33e5; firefly reporter light, replicate 2: 2.89e5; Renilla control light, replicate 1: 3.14e6; Renilla control light, replicate 2: 3.13e6; Call: inactive

How did the screen score PCNA [DRSC07653]?
firefly reporter light, replicate 1: 1.32e6; firefly reporter light, replicate 2: 1.02e6; Renilla control light, replicate 1: 1.71e6; Renilla control light, replicate 2: 1.47e6; Call: inactive

How did the screen score CG7536 [DRSC20050]?
firefly reporter light, replicate 1: 1.14e5; firefly reporter light, replicate 2: 1.17e5; Renilla control light, replicate 1: 7.06e5; Renilla control light, replicate 2: 7.06e5; Call: inactive

With CG2921 [DRSC04324], what does the deposit list?
firefly reporter light, replicate 1: 1.64e6; firefly reporter light, replicate 2: 5.27e5; Renilla control light, replicate 1: 2.49e6; Renilla control light, replicate 2: 9.29e5; Call: inactive

Which result is listed for CG2921 [DRSC24432]?
firefly reporter light, replicate 1: 6.36e5; firefly reporter light, replicate 2: 4.54e5; Renilla control light, replicate 1: 7.63e5; Renilla control light, replicate 2: 7.38e5; Call: inactive

For CG12730 [DRSC17885], what was measured?
firefly reporter light, replicate 1: 3.35e5; firefly reporter light, replicate 2: 3.10e5; Renilla control light, replicate 1: 3.29e6; Renilla control light, replicate 2: 2.65e6; Call: inactive

With Prp31 [DRSC10735], what was measured?
firefly reporter light, replicate 1: 8.93e5; firefly reporter light, replicate 2: 8.02e5; Renilla control light, replicate 1: 1.27e6; Renilla control light, replicate 2: 1.41e6; Call: inactive

Reformatted: 3 of the entries above
Gene,dsRNA,"firefly reporter light, replicate 1","firefly reporter light, replicate 2","Renilla control light, replicate 1","Renilla control light, replicate 2",Call
PCNA,DRSC07653,1.32e6,1.02e6,1.71e6,1.47e6,inactive
CG7536,DRSC20050,1.14e5,1.17e5,7.06e5,7.06e5,inactive
CG2921,DRSC04324,1.64e6,5.27e5,2.49e6,9.29e5,inactive

Further reagents follow.
Which result is listed for Srp68 [DRSC10475]?
firefly reporter light, replicate 1: 5.17e5; firefly reporter light, replicate 2: 6.25e5; Renilla control light, replicate 1: 9.50e5; Renilla control light, replicate 2: 1.21e6; Call: inactive

With Srp68 [DRSC28655], how do the results read?
firefly reporter light, replicate 1: 6.42e5; firefly reporter light, replicate 2: 8.41e5; Renilla control light, replicate 1: 1.45e6; Renilla control light, replicate 2: 1.72e6; Call: inactive

With ref(2)P [DRSC03601], how do the results read?
firefly reporter light, replicate 1: 1.38e5; firefly reporter light, replicate 2: 1.69e5; Renilla control light, replicate 1: 9.53e5; Renilla control light, replicate 2: 1.36e6; Call: inactive

With tth [DRSC19435], how do the results read?
firefly reporter light, replicate 1: 19508; firefly reporter light, replicate 2: 19150; Renilla control light, replicate 1: 3.31e5; Renilla control light, replicate 2: 3.31e5; Call: inactive

How did the screen score tth [DRSC25120]?
firefly reporter light, replicate 1: 3.64e5; firefly reporter light, replicate 2: 3.79e5; Renilla control light, replicate 1: 6.59e5; Renilla control light, replicate 2: 5.51e5; Call: inactive

For Cyp4ac1 [DRSC03302], what was measured?
firefly reporter light, replicate 1: 6.29e5; firefly reporter light, replicate 2: 6.86e5; Renilla control light, replicate 1: 1.65e6; Renilla control light, replicate 2: 2.44e6; Call: inactive

For CG6294 + CG6299 [DRSC19980], what does the deposit list?
firefly reporter light, replicate 1: 4.52e5; firefly reporter light, replicate 2: 6.13e5; Renilla control light, replicate 1: 3.45e6; Renilla control light, replicate 2: 2.78e6; Call: inactive

For CG6294 + CG6299 [DRSC27443], how do the results read?
firefly reporter light, replicate 1: 3.89e5; firefly reporter light, replicate 2: 2.89e5; Renilla control light, replicate 1: 7.73e5; Renilla control light, replicate 2: 7.40e5; Call: inactive

Which result is listed for ltl [DRSC10206]?
firefly reporter light, replicate 1: 1.88e5; firefly reporter light, replicate 2: 2.02e5; Renilla control light, replicate 1: 1.65e6; Renilla control light, replicate 2: 1.77e6; Call: inactive

With ltl [DRSC10870], what does the deposit list?
firefly reporter light, replicate 1: 1.11e5; firefly reporter light, replicate 2: 1.33e5; Renilla control light, replicate 1: 1.45e6; Renilla control light, replicate 2: 1.37e6; Call: inactive
